Measurements from publication PMC12180984.
No constants are given. Whether binding was seen depends on the method and setting. In cells and extracts the contact can be indirect. Some binding calls cover weakened binding; strength is not graded here. For some of these results: Tags and fused reporters may be left off the sequences shown.

The chains behind the UniProt entries cited, without tags or fusion partners.
UniProt Q08857: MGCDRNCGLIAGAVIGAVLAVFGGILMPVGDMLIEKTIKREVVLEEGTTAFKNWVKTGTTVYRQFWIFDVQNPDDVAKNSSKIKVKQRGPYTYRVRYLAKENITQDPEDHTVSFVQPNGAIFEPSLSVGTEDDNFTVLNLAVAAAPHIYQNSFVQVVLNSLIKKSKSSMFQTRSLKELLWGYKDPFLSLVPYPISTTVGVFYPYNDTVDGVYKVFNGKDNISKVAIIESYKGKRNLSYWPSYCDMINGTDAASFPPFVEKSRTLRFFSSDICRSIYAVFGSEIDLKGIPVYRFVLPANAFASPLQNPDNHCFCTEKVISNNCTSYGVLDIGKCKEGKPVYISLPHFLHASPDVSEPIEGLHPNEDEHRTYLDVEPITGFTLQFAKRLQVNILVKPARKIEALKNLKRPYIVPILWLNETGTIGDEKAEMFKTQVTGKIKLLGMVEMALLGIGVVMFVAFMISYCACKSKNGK
UniProt P39688: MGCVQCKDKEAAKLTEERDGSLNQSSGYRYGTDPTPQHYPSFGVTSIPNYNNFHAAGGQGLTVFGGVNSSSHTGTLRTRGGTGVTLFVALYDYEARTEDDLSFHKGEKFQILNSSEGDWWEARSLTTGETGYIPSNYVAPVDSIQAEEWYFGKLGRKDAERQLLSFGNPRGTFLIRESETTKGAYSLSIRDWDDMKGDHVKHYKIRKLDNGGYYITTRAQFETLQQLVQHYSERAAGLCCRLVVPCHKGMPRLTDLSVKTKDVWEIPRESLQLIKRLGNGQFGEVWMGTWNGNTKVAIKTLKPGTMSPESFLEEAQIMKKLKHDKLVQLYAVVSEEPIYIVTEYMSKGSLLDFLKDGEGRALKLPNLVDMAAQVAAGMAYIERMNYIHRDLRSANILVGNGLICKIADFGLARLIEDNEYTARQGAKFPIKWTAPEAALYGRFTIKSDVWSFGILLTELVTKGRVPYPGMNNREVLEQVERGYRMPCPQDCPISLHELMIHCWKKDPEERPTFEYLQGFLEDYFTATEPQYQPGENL
UniProt P25911: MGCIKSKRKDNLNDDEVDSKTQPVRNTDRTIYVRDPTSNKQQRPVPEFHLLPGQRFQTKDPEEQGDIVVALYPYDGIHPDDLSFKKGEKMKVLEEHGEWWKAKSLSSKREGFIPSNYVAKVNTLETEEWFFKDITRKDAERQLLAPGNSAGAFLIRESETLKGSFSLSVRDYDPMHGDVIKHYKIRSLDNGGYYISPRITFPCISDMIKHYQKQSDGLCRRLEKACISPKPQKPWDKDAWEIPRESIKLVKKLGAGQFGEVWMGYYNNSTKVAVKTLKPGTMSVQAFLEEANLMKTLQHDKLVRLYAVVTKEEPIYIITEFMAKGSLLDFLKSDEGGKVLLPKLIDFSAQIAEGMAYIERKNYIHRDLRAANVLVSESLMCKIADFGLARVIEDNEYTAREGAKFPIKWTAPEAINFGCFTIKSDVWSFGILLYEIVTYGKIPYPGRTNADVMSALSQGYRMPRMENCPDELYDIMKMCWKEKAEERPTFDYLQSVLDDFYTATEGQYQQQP

T1: Full-length ASMase (vector of the domain mapping) (UniProt Q04519)
T1 sequence: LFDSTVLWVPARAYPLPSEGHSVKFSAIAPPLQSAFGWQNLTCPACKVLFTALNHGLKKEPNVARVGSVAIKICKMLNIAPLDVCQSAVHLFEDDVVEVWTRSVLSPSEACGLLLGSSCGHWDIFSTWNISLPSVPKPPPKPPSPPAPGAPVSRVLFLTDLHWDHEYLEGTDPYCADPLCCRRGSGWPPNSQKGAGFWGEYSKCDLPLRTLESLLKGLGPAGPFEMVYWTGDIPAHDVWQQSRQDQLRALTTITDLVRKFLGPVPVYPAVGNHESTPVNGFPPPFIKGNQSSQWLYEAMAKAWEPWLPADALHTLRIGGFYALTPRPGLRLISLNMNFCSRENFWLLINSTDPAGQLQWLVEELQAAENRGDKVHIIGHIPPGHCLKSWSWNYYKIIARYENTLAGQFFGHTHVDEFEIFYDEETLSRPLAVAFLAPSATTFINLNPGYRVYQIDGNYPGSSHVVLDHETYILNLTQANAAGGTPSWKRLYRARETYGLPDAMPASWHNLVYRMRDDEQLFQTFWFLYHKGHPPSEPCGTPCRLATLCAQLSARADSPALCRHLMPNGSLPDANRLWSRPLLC

B1: HA-tagged ASMase (HA-ASM), expressed in RAW264.7 cells (enzyme, UniProt Q04519 45-627)
chain: T1 sequence

Legend:
[1] = target: CD36, endogenous in RAW264.7 macrophages (mouse (endogenous in RAW264.7)) (UniProt Q08857); assay: co-IP; endogenous proteins of RAW264.7 cells lysed in RIPA buffer; primary antibody and protein A/G agarose overnight at 4 C, washed three times with PBS; cells untreated, LDL- or oxLDL-treated; for Lyn and Fyn with sh-ASMase or control and oxLDL for 24 h
[2] = target: T1, Full-length ASMase (vector of the domain mapping); assay: co-IP; oxLDL-treated cells transfected with HA-CD36 and vectors expressing full-length or truncated ASMase
[3] = target: Flag-CD36 (wild-type CD36) (UniProt Q08857); assay: co-IP; RAW264.7 cells transfected with Flag-CD36 and HA-ASM, with or without oxLDL; precipitated with anti-Flag agarose gel, immunoblot with CD36 and ASMase antibodies

Molecule	binding [1]	also measured
Fyn kinase, endogenous in RAW264.7 macrophages (from UniProt P39688 1-537) (enzyme)	binds	–
Hemagglutinin (HA)-CD36 (from UniProt Q08857 1-472) (receptor)	–	binding [2]: binds
Lyn kinase, endogenous in RAW264.7 macrophages (from UniProt P25911 1-512) (enzyme)	binds	–
B1	–	binding [3]: binds
